In the supplement of paper PMC12823440, “Inhibitors supercharge kinase turnover through native proteolytic circuits” (Nature, 2025):
This is one part of the list. Hit calls seldom repeat between salt and free forms of one compound.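 Kinases, fused to nanoluciferase, were expressed in K562 cells; luminescence was measured every 4 h from 2 to 18 h as percent of control (DMSO = 100%, positive control = 0%). A time point is decreased if signal falls significantly (2 sigma). Hits were called by the authors by a rule that is not shown; the count of time points alone does not decide it.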

Chains of the proteins cited; added tags and fusions are not shown. Lines headed by an entry give the natural chain unless they say otherwise; changes in a name come on top.
UniProt P07949, whole entry, looked up: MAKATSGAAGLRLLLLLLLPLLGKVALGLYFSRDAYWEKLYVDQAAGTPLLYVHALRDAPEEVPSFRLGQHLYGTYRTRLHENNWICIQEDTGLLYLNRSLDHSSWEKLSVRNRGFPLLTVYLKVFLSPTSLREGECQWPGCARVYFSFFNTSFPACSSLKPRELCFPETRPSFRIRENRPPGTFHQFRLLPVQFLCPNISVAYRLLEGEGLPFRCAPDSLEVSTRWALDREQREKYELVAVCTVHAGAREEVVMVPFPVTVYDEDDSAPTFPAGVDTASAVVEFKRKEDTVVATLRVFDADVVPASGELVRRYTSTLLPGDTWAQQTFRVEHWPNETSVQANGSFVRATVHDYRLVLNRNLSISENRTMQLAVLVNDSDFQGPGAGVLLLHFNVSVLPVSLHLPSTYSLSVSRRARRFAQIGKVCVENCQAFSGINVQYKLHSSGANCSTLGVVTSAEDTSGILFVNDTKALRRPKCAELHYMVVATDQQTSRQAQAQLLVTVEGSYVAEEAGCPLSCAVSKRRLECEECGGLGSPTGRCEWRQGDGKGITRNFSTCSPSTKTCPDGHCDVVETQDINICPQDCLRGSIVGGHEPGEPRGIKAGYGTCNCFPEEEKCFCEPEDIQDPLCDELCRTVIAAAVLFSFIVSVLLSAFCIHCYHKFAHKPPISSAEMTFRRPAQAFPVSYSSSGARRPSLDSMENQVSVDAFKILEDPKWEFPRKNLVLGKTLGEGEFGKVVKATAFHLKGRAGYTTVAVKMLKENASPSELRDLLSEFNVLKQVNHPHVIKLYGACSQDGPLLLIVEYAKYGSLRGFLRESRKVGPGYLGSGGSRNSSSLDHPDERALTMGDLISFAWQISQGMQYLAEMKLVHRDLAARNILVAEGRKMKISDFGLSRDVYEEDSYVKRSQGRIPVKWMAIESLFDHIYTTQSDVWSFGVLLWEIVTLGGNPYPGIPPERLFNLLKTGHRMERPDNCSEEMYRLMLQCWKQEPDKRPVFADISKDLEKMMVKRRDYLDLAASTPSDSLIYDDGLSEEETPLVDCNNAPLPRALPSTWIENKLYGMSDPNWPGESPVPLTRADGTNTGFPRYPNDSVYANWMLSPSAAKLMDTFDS
UniProt P07949, whole entry M918T, looked up: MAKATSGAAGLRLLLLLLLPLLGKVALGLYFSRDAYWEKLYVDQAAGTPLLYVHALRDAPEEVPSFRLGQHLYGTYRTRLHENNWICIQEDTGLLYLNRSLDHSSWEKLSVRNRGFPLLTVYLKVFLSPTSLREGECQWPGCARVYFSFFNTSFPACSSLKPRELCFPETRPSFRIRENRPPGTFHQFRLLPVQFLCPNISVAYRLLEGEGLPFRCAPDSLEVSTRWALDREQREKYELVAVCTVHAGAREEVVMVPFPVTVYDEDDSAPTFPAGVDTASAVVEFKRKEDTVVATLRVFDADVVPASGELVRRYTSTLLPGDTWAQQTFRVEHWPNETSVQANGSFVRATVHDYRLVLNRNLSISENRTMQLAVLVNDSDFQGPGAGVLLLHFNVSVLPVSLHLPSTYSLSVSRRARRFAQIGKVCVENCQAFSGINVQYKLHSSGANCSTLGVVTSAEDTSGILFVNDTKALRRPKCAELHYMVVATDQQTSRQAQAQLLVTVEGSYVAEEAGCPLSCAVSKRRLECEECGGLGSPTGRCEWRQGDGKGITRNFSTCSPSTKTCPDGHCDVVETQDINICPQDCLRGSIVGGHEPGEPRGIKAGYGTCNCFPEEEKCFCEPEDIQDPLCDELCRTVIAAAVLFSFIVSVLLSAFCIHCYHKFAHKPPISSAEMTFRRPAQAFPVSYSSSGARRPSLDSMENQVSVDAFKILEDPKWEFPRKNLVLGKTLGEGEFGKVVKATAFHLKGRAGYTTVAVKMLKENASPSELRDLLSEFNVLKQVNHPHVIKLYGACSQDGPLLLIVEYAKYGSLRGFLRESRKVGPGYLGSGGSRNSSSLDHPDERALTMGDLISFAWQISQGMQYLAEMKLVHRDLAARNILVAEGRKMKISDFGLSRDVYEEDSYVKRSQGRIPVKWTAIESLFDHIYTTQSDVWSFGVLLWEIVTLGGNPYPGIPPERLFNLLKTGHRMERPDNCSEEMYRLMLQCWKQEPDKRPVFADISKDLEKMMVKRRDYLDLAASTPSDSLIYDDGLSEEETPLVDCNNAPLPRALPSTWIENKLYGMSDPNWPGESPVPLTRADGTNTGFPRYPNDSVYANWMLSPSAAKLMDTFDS
UniProt Q9BRS2: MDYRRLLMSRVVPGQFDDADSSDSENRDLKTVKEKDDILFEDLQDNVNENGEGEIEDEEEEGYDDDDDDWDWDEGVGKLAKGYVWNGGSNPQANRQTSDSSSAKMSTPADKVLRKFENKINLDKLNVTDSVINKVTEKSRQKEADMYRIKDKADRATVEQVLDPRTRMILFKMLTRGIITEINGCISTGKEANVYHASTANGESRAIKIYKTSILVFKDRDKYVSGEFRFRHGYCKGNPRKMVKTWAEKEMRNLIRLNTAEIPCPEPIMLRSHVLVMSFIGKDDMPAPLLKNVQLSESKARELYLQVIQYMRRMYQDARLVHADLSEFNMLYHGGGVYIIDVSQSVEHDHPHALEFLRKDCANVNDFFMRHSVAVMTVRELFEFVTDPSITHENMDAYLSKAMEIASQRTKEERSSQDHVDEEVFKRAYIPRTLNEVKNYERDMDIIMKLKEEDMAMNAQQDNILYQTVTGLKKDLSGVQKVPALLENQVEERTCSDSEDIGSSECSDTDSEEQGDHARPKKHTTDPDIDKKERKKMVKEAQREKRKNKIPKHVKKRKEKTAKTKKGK
UniProt Q15418, whole entry: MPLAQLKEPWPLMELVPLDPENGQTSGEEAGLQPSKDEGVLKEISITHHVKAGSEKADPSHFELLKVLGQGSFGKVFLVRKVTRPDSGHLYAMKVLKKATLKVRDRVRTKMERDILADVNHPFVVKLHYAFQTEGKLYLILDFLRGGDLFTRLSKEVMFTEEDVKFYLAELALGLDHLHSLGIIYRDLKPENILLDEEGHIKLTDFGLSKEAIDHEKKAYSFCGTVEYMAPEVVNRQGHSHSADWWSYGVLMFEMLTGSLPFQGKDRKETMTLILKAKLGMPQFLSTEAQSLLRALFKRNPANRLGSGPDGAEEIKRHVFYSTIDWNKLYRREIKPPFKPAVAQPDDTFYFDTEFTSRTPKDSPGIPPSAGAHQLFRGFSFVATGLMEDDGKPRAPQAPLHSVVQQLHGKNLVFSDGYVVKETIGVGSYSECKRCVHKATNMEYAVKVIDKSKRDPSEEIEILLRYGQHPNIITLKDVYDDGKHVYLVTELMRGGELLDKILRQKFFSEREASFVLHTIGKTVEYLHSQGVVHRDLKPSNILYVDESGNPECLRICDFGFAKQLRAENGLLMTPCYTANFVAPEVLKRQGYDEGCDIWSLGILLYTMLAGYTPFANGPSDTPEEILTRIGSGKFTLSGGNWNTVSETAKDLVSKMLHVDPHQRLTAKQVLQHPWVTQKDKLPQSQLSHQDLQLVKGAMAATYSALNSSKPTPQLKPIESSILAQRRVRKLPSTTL
UniProt Q9NYA1, whole entry: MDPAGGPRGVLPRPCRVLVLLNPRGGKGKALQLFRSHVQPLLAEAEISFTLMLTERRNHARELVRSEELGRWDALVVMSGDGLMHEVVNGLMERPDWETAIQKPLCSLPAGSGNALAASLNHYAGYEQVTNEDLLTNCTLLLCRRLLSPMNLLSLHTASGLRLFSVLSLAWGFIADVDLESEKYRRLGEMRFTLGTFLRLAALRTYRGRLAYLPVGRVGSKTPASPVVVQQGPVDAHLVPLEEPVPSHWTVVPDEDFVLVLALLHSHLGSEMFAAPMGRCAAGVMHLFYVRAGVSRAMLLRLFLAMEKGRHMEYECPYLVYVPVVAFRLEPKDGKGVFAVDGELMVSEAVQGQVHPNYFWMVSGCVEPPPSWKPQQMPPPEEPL
UniProt Q9Y6E0: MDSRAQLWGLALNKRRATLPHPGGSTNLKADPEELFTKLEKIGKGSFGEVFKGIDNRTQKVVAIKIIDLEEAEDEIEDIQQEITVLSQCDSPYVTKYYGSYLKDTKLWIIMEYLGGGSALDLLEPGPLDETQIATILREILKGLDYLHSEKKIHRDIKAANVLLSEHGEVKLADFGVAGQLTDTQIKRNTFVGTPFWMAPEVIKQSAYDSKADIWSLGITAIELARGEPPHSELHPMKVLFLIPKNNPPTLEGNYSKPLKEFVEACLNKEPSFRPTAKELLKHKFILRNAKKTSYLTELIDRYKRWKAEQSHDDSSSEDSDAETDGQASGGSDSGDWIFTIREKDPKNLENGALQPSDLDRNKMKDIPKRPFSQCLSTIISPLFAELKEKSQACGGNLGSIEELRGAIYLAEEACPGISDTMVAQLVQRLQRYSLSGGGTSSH
UniProt P42680: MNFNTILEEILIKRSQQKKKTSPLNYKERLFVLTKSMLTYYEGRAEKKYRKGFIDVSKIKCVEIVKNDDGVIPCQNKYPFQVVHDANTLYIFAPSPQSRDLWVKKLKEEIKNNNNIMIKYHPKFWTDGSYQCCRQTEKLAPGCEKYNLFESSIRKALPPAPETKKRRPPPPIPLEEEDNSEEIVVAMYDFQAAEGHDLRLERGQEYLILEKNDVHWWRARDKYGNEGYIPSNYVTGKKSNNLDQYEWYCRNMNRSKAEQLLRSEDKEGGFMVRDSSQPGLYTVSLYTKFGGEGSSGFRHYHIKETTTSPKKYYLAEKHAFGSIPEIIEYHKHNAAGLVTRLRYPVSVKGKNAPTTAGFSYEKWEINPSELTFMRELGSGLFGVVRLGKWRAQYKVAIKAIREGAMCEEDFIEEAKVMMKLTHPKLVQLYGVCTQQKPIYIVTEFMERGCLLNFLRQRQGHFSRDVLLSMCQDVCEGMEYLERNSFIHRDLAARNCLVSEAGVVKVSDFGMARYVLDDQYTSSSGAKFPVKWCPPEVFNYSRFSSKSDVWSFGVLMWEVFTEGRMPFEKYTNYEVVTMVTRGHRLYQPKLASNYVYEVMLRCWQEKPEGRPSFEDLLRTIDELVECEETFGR
UniProt Q6PHR2: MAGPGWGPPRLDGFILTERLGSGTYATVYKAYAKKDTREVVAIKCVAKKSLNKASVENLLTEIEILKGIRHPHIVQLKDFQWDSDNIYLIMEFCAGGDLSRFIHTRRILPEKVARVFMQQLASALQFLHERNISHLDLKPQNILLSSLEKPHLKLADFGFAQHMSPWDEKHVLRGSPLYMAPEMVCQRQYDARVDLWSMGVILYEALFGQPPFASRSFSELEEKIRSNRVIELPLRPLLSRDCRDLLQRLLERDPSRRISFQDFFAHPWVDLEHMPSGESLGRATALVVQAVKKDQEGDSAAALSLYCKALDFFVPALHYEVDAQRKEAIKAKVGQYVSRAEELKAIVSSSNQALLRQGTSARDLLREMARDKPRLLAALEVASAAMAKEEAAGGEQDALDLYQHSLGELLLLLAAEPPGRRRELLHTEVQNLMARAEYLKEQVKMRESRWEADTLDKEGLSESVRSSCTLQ
UniProt P43403: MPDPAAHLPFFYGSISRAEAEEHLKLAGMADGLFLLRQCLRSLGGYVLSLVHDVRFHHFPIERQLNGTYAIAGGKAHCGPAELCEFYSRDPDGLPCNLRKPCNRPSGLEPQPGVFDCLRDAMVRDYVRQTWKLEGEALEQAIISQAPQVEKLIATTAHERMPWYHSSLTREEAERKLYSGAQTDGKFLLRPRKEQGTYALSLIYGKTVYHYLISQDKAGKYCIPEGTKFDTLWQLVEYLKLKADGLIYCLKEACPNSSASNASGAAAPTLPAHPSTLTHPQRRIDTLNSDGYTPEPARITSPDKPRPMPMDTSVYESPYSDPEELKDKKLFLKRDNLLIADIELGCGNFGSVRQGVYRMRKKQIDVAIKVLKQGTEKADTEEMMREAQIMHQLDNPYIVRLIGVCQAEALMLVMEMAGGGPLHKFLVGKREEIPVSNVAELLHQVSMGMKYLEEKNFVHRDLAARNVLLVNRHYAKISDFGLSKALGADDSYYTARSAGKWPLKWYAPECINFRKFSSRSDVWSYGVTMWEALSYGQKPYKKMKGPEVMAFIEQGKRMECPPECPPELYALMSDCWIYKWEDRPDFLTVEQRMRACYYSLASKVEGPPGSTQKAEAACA
UniProt P31749: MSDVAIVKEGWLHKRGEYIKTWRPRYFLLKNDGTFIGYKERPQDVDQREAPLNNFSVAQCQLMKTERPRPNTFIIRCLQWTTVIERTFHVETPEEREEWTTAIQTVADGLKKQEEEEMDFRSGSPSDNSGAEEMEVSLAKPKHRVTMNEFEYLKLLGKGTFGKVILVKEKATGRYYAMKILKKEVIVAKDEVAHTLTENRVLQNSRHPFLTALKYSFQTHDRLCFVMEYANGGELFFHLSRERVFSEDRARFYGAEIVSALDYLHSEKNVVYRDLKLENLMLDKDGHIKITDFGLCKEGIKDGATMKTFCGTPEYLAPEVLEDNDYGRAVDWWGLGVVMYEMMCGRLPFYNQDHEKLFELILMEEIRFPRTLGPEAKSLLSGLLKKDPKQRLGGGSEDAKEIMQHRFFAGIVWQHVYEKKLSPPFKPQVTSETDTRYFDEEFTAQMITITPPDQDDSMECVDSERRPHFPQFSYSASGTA

Columns and labels:
Details in all cases: K562; 2-18 h
RET = RET (UniProt P07949); test: kinase-Nluc reporter destabilization hit call (1 = scored as downregulated) (binary); higher = compound decreases kinase abundance
[1] = target: RET_M918T (clone: RET_mut) (UniProt P07949); test: as above
RIOK1 = RIOK1 (UniProt Q9BRS2); test: as above
RIPK1 = RIPK1 (UniProt Q13546); test: as above
RIPK2 = RIPK2 (UniProt O43353); test: as above
ROR2 = ROR2 (UniProt Q01974); test: as above
RPS6KA1 = RPS6KA1 (UniProt Q15418); test: as above
SPHK1 = SPHK1 (UniProt Q9NYA1); test: as above
SRC = SRC (UniProt P12931); test: as above
STK24 = STK24 (UniProt Q9Y6E0); test: as above
STK38 = STK38 (UniProt Q15208); test: as above
SYK = SYK (UniProt P43405); test: as above
TEC = TEC (UniProt P42680); test: as above
TYK2 = TYK2 (UniProt P29597); test: as above
ULK3 = ULK3 (UniProt Q6PHR2); test: as above
YES1 = YES1 (UniProt P07947); test: as above
ZAK = ZAK (UniProt Q9NYL2); test: as above
ZAP70 = ZAP70 (UniProt P43403); test: as above
ABL1 = ABL1 (UniProt P00519); test: number of time points (of 5) at which kinase-Nluc abundance scored as decreased, DMSO-normalised (count); higher = more persistent destabilization
AKT1 = AKT1 (UniProt P31749); test: as above

C[C@@]12CCc3occc3[C@H]1CC[C@@]13C[C@@H](CC[C@H]12)[C@@](O)(CO)C3 [Cafestol] (10 µM)
0: number of time points (ABL1) | number of time points (AKT1)
inactive: kinase-Nluc reporter destabilization hit call (RET) 0 | kinase-Nluc reporter destabilization hit call [1] 0 | kinase-Nluc reporter destabilization hit call (RIOK1) 0 | kinase-Nluc reporter destabilization hit call (RIPK1) 0 | kinase-Nluc reporter destabilization hit call (RIPK2) 0 | kinase-Nluc reporter destabilization hit call (ROR2) 0 | kinase-Nluc reporter destabilization hit call (RPS6KA1) 0 | kinase-Nluc reporter destabilization hit call (SPHK1) 0 | kinase-Nluc reporter destabilization hit call (SRC) 0 | kinase-Nluc reporter destabilization hit call (STK24) 0 | kinase-Nluc reporter destabilization hit call (STK38) 0 | kinase-Nluc reporter destabilization hit call (SYK) 0 | kinase-Nluc reporter destabilization hit call (TEC) 0 | kinase-Nluc reporter destabilization hit call (TYK2) 0 | kinase-Nluc reporter destabilization hit call (ULK3) 0 | kinase-Nluc reporter destabilization hit call (YES1) 0 | kinase-Nluc reporter destabilization hit call (ZAK) 0 | kinase-Nluc reporter destabilization hit call (ZAP70) 0

C1=N/C2=N/c3ccc(OCCN4CCCC4)c(c3)COC/C=C/COCc3cccc(c3)C(=C1)N2 [Pacritinib] (2.5 µM)
0: number of time points (ABL1) | number of time points (AKT1)
inactive: kinase-Nluc reporter destabilization hit call (RET) 0 | kinase-Nluc reporter destabilization hit call [1] 0 | kinase-Nluc reporter destabilization hit call (RIOK1) 0 | kinase-Nluc reporter destabilization hit call (RIPK1) 0 | kinase-Nluc reporter destabilization hit call (RIPK2) 0 | kinase-Nluc reporter destabilization hit call (ROR2) 0 | kinase-Nluc reporter destabilization hit call (RPS6KA1) 0 | kinase-Nluc reporter destabilization hit call (SPHK1) 0 | kinase-Nluc reporter destabilization hit call (SRC) 0 | kinase-Nluc reporter destabilization hit call (STK24) 0 | kinase-Nluc reporter destabilization hit call (STK38) 0 | kinase-Nluc reporter destabilization hit call (SYK) 0 | kinase-Nluc reporter destabilization hit call (TEC) 0 | kinase-Nluc reporter destabilization hit call (TYK2) 0 | kinase-Nluc reporter destabilization hit call (ULK3) 0 | kinase-Nluc reporter destabilization hit call (YES1) 0 | kinase-Nluc reporter destabilization hit call (ZAK) 0 | kinase-Nluc reporter destabilization hit call (ZAP70) 0

Clc1ccc(Nc2cccc(-c3cn[nH]c3)c2)cc1 (10 µM)
0: number of time points (ABL1) | number of time points (AKT1)
inactive: kinase-Nluc reporter destabilization hit call (RET) 0 | kinase-Nluc reporter destabilization hit call [1] 0 | kinase-Nluc reporter destabilization hit call (RIOK1) 0 | kinase-Nluc reporter destabilization hit call (RIPK1) 0 | kinase-Nluc reporter destabilization hit call (RIPK2) 0 | kinase-Nluc reporter destabilization hit call (ROR2) 0 | kinase-Nluc reporter destabilization hit call (RPS6KA1) 0 | kinase-Nluc reporter destabilization hit call (SPHK1) 0 | kinase-Nluc reporter destabilization hit call (SRC) 0 | kinase-Nluc reporter destabilization hit call (STK24) 0 | kinase-Nluc reporter destabilization hit call (STK38) 0 | kinase-Nluc reporter destabilization hit call (SYK) 0 | kinase-Nluc reporter destabilization hit call (TEC) 0 | kinase-Nluc reporter destabilization hit call (TYK2) 0 | kinase-Nluc reporter destabilization hit call (ULK3) 0 | kinase-Nluc reporter destabilization hit call (YES1) 0 | kinase-Nluc reporter destabilization hit call (ZAK) 0 | kinase-Nluc reporter destabilization hit call (ZAP70) 0

O=C(O)/C=C/c1cc(Br)c(Br)c(Br)c1Br (10 µM)
inactive: kinase-Nluc reporter destabilization hit call (RET) 0 | kinase-Nluc reporter destabilization hit call [1] 0 | kinase-Nluc reporter destabilization hit call (RIOK1) 0 | kinase-Nluc reporter destabilization hit call (RIPK1) 0 | kinase-Nluc reporter destabilization hit call (RIPK2) 0 | kinase-Nluc reporter destabilization hit call (ROR2) 0 | kinase-Nluc reporter destabilization hit call (RPS6KA1) 0 | kinase-Nluc reporter destabilization hit call (SPHK1) 0 | kinase-Nluc reporter destabilization hit call (SRC) 0 | kinase-Nluc reporter destabilization hit call (STK24) 0 | kinase-Nluc reporter destabilization hit call (STK38) 0 | kinase-Nluc reporter destabilization hit call (SYK) 0 | kinase-Nluc reporter destabilization hit call (TEC) 0 | kinase-Nluc reporter destabilization hit call (TYK2) 0 | kinase-Nluc reporter destabilization hit call (ULK3) 0 | kinase-Nluc reporter destabilization hit call (YES1) 0 | kinase-Nluc reporter destabilization hit call (ZAK) 0 | kinase-Nluc reporter destabilization hit call (ZAP70) 0
0: number of time points (ABL1) | number of time points (AKT1)

CC(=O)NCC(=O)N[C@@H](C)C(=O)N[C@@H](CCC(N)=O)C(=O)N[C@@H](Cc1ccccc1)C(=O)N[C@@H](CO)C(=O)N[C@@H](CCCCN)C(=O)N[C@H](C(=O)N[C@@H](C)C(=O)N[C@@H](C)C(=O)N[C@@H](CCCCN)C(=O)O)[C@@H](C)O (10 µM)
inactive: kinase-Nluc reporter destabilization hit call (RET) 0 | kinase-Nluc reporter destabilization hit call [1] 0 | kinase-Nluc reporter destabilization hit call (RIOK1) 0 | kinase-Nluc reporter destabilization hit call (RIPK1) 0 | kinase-Nluc reporter destabilization hit call (RIPK2) 0 | kinase-Nluc reporter destabilization hit call (ROR2) 0 | kinase-Nluc reporter destabilization hit call (RPS6KA1) 0 | kinase-Nluc reporter destabilization hit call (SPHK1) 0 | kinase-Nluc reporter destabilization hit call (SRC) 0 | kinase-Nluc reporter destabilization hit call (STK24) 0 | kinase-Nluc reporter destabilization hit call (STK38) 0 | kinase-Nluc reporter destabilization hit call (SYK) 0 | kinase-Nluc reporter destabilization hit call (TEC) 0 | kinase-Nluc reporter destabilization hit call (TYK2) 0 | kinase-Nluc reporter destabilization hit call (ULK3) 0 | kinase-Nluc reporter destabilization hit call (YES1) 0 | kinase-Nluc reporter destabilization hit call (ZAK) 0 | kinase-Nluc reporter destabilization hit call (ZAP70) 0
0: number of time points (ABL1) | number of time points (AKT1)

Cc1occ2c1C(=O)c1c(O)ccc(O)c1C2 (2.5 µM)
0: number of time points (ABL1) | number of time points (AKT1)
inactive: kinase-Nluc reporter destabilization hit call (RET) 0 | kinase-Nluc reporter destabilization hit call [1] 0 | kinase-Nluc reporter destabilization hit call (RIOK1) 0 | kinase-Nluc reporter destabilization hit call (RIPK1) 0 | kinase-Nluc reporter destabilization hit call (RIPK2) 0 | kinase-Nluc reporter destabilization hit call (ROR2) 0 | kinase-Nluc reporter destabilization hit call (RPS6KA1) 0 | kinase-Nluc reporter destabilization hit call (SPHK1) 0 | kinase-Nluc reporter destabilization hit call (SRC) 0 | kinase-Nluc reporter destabilization hit call (STK24) 0 | kinase-Nluc reporter destabilization hit call (STK38) 0 | kinase-Nluc reporter destabilization hit call (SYK) 0 | kinase-Nluc reporter destabilization hit call (TEC) 0 | kinase-Nluc reporter destabilization hit call (TYK2) 0 | kinase-Nluc reporter destabilization hit call (ULK3) 0 | kinase-Nluc reporter destabilization hit call (YES1) 0 | kinase-Nluc reporter destabilization hit call (ZAK) 0 | kinase-Nluc reporter destabilization hit call (ZAP70) 0

CCn1c(-c2nonc2N)nc2c(C#CCO)ncc(OCCCN)c21 [AKT Kinase Inhibitor] (10 µM)
0: number of time points (ABL1) | number of time points (AKT1)
inactive: kinase-Nluc reporter destabilization hit call (RET) 0 | kinase-Nluc reporter destabilization hit call [1] 0 | kinase-Nluc reporter destabilization hit call (RIOK1) 0 | kinase-Nluc reporter destabilization hit call (RIPK1) 0 | kinase-Nluc reporter destabilization hit call (RIPK2) 0 | kinase-Nluc reporter destabilization hit call (ROR2) 0 | kinase-Nluc reporter destabilization hit call (RPS6KA1) 0 | kinase-Nluc reporter destabilization hit call (SPHK1) 0 | kinase-Nluc reporter destabilization hit call (SRC) 0 | kinase-Nluc reporter destabilization hit call (STK24) 0 | kinase-Nluc reporter destabilization hit call (STK38) 0 | kinase-Nluc reporter destabilization hit call (SYK) 0 | kinase-Nluc reporter destabilization hit call (TEC) 0 | kinase-Nluc reporter destabilization hit call (TYK2) 0 | kinase-Nluc reporter destabilization hit call (ULK3) 0 | kinase-Nluc reporter destabilization hit call (YES1) 0 | kinase-Nluc reporter destabilization hit call (ZAK) 0 | kinase-Nluc reporter destabilization hit call (ZAP70) 0

CNS(=O)(=O)Nc1nccc(Cc2c(C)c3ccc(Oc4ncccn4)cc3oc2=O)c1F (10 µM)
0: number of time points (AKT1)
1: number of time points (ABL1)
inactive: kinase-Nluc reporter destabilization hit call (RET) 0 | kinase-Nluc reporter destabilization hit call [1] 0 | kinase-Nluc reporter destabilization hit call (RIOK1) 0 | kinase-Nluc reporter destabilization hit call (RIPK1) 0 | kinase-Nluc reporter destabilization hit call (RIPK2) 0 | kinase-Nluc reporter destabilization hit call (ROR2) 0 | kinase-Nluc reporter destabilization hit call (RPS6KA1) 0 | kinase-Nluc reporter destabilization hit call (SPHK1) 0 | kinase-Nluc reporter destabilization hit call (SRC) 0 | kinase-Nluc reporter destabilization hit call (STK24) 0 | kinase-Nluc reporter destabilization hit call (STK38) 0 | kinase-Nluc reporter destabilization hit call (SYK) 0 | kinase-Nluc reporter destabilization hit call (TEC) 0 | kinase-Nluc reporter destabilization hit call (TYK2) 0 | kinase-Nluc reporter destabilization hit call (ULK3) 0 | kinase-Nluc reporter destabilization hit call (YES1) 0 | kinase-Nluc reporter destabilization hit call (ZAK) 0 | kinase-Nluc reporter destabilization hit call (ZAP70) 0
